Changes are numbered by the printed parent chain. No constants are given. Whether binding was seen depends on the method and setting. Binding seen in cells or lysates may run through a third protein. Some binding calls cover weakened binding; strength is not graded here. For part of these data: Where a sequence is shown, tags or fusion partners need not be part of it.
Legend:
Experiment in all cases: co-IP; Stu2-HA precipitated with anti-HA magnetic beads from 67 mg cryo-milled yeast extract in PEM buffer (80 mM PIPES, 1 mM EGTA, 1 mM MgCl2, pH 6.8); precipitate blotted with anti α-tubulin (anti-Tub1) as surrogate for αβ-tubulin
[1] = biological target: T1, Stu2-HA (wild-type Stu2, 3xHA tagged) (S. cerevisiae) (UniProt P46675)
T1 sequence: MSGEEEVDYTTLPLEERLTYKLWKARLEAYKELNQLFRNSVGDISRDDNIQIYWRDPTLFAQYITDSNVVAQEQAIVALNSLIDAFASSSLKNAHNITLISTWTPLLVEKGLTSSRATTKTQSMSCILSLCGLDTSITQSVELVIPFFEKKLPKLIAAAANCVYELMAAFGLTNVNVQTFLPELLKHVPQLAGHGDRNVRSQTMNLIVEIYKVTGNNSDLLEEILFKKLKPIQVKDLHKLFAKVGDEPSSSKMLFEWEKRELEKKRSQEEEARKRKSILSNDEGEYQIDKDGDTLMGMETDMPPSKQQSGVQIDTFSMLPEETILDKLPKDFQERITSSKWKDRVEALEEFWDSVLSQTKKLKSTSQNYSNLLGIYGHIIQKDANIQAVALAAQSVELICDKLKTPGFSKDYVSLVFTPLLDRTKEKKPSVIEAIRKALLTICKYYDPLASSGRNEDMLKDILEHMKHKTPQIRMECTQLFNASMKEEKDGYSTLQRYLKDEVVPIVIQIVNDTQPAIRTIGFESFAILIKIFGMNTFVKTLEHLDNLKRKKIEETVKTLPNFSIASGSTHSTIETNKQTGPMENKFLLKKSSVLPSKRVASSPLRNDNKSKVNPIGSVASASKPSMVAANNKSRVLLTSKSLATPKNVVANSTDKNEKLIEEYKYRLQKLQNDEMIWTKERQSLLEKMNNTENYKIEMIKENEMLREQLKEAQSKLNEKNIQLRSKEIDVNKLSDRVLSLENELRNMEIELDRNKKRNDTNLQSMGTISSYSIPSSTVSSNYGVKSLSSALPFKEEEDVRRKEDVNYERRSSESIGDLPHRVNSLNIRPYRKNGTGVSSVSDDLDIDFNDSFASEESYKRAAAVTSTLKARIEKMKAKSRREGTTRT

Amino acid sequences for entries named in this document (tags omitted). A change or cut given only in a name is not applied to a line headed by its entry.
UniProt P09733: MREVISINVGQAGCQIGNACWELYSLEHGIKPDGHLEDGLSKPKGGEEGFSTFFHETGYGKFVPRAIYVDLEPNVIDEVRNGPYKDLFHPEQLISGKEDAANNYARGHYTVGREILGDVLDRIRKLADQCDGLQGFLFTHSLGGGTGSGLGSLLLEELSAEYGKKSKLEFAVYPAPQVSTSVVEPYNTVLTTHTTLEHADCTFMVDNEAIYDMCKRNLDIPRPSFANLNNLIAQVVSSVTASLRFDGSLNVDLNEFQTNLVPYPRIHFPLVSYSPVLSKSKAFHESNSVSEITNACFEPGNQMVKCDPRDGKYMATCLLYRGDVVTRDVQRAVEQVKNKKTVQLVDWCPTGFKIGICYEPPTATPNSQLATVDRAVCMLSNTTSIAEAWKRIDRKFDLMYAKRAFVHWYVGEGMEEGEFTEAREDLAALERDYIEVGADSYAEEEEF

[2] = biological target: T2, Stu2-K870R-3xHA (S. cerevisiae) (UniProt P46675)
T2 sequence: T1 sequence with K870R

[3] = biological target: T3, Stu2-K252,469R-3xHA (S. cerevisiae) (UniProt P46675)
T3 sequence: T1 sequence with K252R, K469R

Measured: binding

αβ-tubulin heterodimer (from UniProt P09733 1-447; P02557 1-457) (complex)
binds: [1] | [2] | [3]
